Values from PubChem BioAssay AID1259405 (NCATS, 2018).
The whole screen tested about 50,000 reagents; below is a part drawn at random. Over the whole deposit, about 4,000 (8%) got an active call. 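Mouse siRNA library applied to hamster cells; one well for each siRNA.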 A number with no mark means an inactive call. No sequences are given here.

Assay: 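Knock-downs that lift recombinant protein yield in hamster ovary cells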 (primary screen)
System: Chinese hamster CHO-K1 ovary cells with stable secreted eGFP expression
Knock-down reagent: single siRNA against mouse genes, 0.8 pmol siRNA per well (2 µl of 400 nM stock)
Duration: 3 days
Measured: 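Percent of the per-plate non-targeting control median for intracellular GFP per well by laser scanning cytometry and for cell viability by ATP luminescence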
Reading the numbers: GFP, % of control: higher = more GFP per well, higher productivity; viability (ATP), % of control: higher = more viable cells (more ATP)
Active means: 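Called active when intracellular GFP, relative to negative control, is at or above 120%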

With knock-down of Dnph1 (2'-deoxynucleoside 5'-phosphate N-hydrolase 1) [SID363546995] the results were GFP, % of control 56; viability (ATP), % of control 35.1.
Dnph1 (2'-deoxynucleoside 5'-phosphate N-hydrolase 1) [SID363549807] showed GFP, % of control 101; viability (ATP), % of control 81.6.
Dnph1 (2'-deoxynucleoside 5'-phosphate N-hydrolase 1) [SID363587861] showed GFP, % of control 143 (active); viability (ATP), % of control 124.
After knock-down of Vcl (vinculin) [SID363573411] the results were GFP, % of control 56; viability (ATP), % of control 90.2.
Vcl (vinculin) [SID363588650] showed GFP, % of control 105; viability (ATP), % of control 97.3.
For Sdf2l1 (stromal cell-derived factor 2-like 1) [SID363545231], the entry reads GFP, % of control 50.9; viability (ATP), % of control 61.3.
Sdf2l1 (stromal cell-derived factor 2-like 1) [SID363548744] gave GFP, % of control 78.9; viability (ATP), % of control 57.5.
Sdf2l1 (stromal cell-derived factor 2-like 1) [SID363562550] showed GFP, % of control 77.6; viability (ATP), % of control 91.8.
Silencing of Parp2 (poly (ADP-ribose) polymerase family, member 2) [SID363570371] resulted in: GFP, % of control 78; viability (ATP), % of control 59.4.
Knock-down of Parp2 (poly (ADP-ribose) polymerase family, member 2) [SID363579171] came out at: GFP, % of control 89.5; viability (ATP), % of control 62.8.
Parp2 (poly (ADP-ribose) polymerase family, member 2) [SID363583043] gave GFP, % of control 82.9; viability (ATP), % of control 85.2.
After knock-down of Krtap9-1 (keratin associated protein 9-1) [SID363541012] the results were GFP, % of control 54; viability (ATP), % of control 56.5.
For Krtap9-1 (keratin associated protein 9-1) [SID363555639], the values are GFP, % of control 61.1; viability (ATP), % of control 63.4.
After knock-down of Krtap9-1 (keratin associated protein 9-1) [SID363565928] the results were GFP, % of control 88.1; viability (ATP), % of control 61.7.
P2rx5 (purinergic receptor P2X, ligand-gated ion channel, 5) [SID363574636] showed GFP, % of control 68.9; viability (ATP), % of control 68.6.
Silencing of P2rx5 (purinergic receptor P2X, ligand-gated ion channel, 5) [SID363575692] resulted in: GFP, % of control 105; viability (ATP), % of control 60.2.
After knock-down of P2rx5 (purinergic receptor P2X, ligand-gated ion channel, 5) [SID363580268], the record shows GFP, % of control 19.2; viability (ATP), % of control 19.4.
Depletion of Tpd52 (tumor protein D52) [SID363556494] resulted in: GFP, % of control 55.4; viability (ATP), % of control 78.
Tpd52 (tumor protein D52) [SID363586944] scored GFP, % of control 61.1; viability (ATP), % of control 85.1.
For Tpd52 (tumor protein D52) [SID363589052] the deposit lists GFP, % of control 85.6; viability (ATP), % of control 133.
For Rnf17 (ring finger protein 17) [SID363555051], the values are GFP, % of control 91.3; viability (ATP), % of control 79.5.
With knock-down of Rnf17 (ring finger protein 17) [SID363568498] the results were GFP, % of control 75.4; viability (ATP), % of control 67.8.
For Rnf17 (ring finger protein 17) [SID363586557] the deposit lists GFP, % of control 61.2; viability (ATP), % of control 85.6.
With knock-down of Ifitm5 (interferon induced transmembrane protein 5) [SID363540252], the record shows GFP, % of control 48.6; viability (ATP), % of control 49.6.
Against Ifitm5 (interferon induced transmembrane protein 5) [SID363542004], the entry reads GFP, % of control 56.9; viability (ATP), % of control 87.7.
Against Ifitm5 (interferon induced transmembrane protein 5) [SID363566920], the values are GFP, % of control 81.8; viability (ATP), % of control 101.

7 entries from above, arranged by “viability (ATP), % of control”, lowest first.
Ifitm5 (interferon induced transmembrane protein 5) [SID363540252] | GFP, % of control = 48.6; viability (ATP), % of control = 49.6
Rnf17 (ring finger protein 17) [SID363568498] | GFP, % of control = 75.4; viability (ATP), % of control = 67.8
Rnf17 (ring finger protein 17) [SID363555051] | GFP, % of control = 91.3; viability (ATP), % of control = 79.5
Rnf17 (ring finger protein 17) [SID363586557] | GFP, % of control = 61.2; viability (ATP), % of control = 85.6
Ifitm5 (interferon induced transmembrane protein 5) [SID363542004] | GFP, % of control = 56.9; viability (ATP), % of control = 87.7
Ifitm5 (interferon induced transmembrane protein 5) [SID363566920] | GFP, % of control = 81.8; viability (ATP), % of control = 101
Tpd52 (tumor protein D52) [SID363589052] | GFP, % of control = 85.6; viability (ATP), % of control = 133

The results go on:
With knock-down of Arhgef2 (Rho/Rac guanine nucleotide exchange factor 2) [SID363570021] the results were GFP, % of control 107; viability (ATP), % of control 82.9.
Depletion of Arhgef2 (Rho/Rac guanine nucleotide exchange factor 2) [SID363576357] gave: GFP, % of control 65.4; viability (ATP), % of control 54.
Depletion of Arhgef2 (Rho/Rac guanine nucleotide exchange factor 2) [SID363579525] gave: GFP, % of control 66.1; viability (ATP), % of control 61.6.
Fbxo4 (F-box protein 4) [SID363541863] gave GFP, % of control 66.4; viability (ATP), % of control 84.1.
For Fbxo4 (F-box protein 4) [SID363553455], the entry reads GFP, % of control 37.7; viability (ATP), % of control 31.2.
For Fbxo4 (F-box protein 4) [SID363566779] the deposit lists GFP, % of control 157 (active); viability (ATP), % of control 39.3.
With knock-down of Hsh2d (hematopoietic SH2 domain containing) [SID363540444], the screen gave GFP, % of control 57.5; viability (ATP), % of control 68.6.
For Hsh2d (hematopoietic SH2 domain containing) [SID363542196], the values are GFP, % of control 124 (active); viability (ATP), % of control 87.2.
For Hsh2d (hematopoietic SH2 domain containing) [SID363567112] the deposit lists GFP, % of control 63.4; viability (ATP), % of control 102.
After knock-down of Ube2l3 (ubiquitin-conjugating enzyme E2L 3) [SID363572818], the record shows GFP, % of control 96.8; viability (ATP), % of control 86.3.
Silencing of Ube2l3 (ubiquitin-conjugating enzyme E2L 3) [SID363578098] gave: GFP, % of control 107; viability (ATP), % of control 88.2.
Silencing of Ube2l3 (ubiquitin-conjugating enzyme E2L 3) [SID363582322] came out at: GFP, % of control 81.2; viability (ATP), % of control 92.3.
Against Adi1 (acireductone dioxygenase 1) [SID363572925], the values are GFP, % of control 80; viability (ATP), % of control 95.
With knock-down of Adi1 (acireductone dioxygenase 1) [SID363577501] the results were GFP, % of control 134 (active); viability (ATP), % of control 90.
Against Adi1 (acireductone dioxygenase 1) [SID363581021], the values are GFP, % of control 135 (active); viability (ATP), % of control 60.3.
